Drawing on publication PMC10333326, this text covers binding for one substance.

Sequences of proteins named here, by UniProt entry; tags and fusion partners are left off.
UniProt O94916: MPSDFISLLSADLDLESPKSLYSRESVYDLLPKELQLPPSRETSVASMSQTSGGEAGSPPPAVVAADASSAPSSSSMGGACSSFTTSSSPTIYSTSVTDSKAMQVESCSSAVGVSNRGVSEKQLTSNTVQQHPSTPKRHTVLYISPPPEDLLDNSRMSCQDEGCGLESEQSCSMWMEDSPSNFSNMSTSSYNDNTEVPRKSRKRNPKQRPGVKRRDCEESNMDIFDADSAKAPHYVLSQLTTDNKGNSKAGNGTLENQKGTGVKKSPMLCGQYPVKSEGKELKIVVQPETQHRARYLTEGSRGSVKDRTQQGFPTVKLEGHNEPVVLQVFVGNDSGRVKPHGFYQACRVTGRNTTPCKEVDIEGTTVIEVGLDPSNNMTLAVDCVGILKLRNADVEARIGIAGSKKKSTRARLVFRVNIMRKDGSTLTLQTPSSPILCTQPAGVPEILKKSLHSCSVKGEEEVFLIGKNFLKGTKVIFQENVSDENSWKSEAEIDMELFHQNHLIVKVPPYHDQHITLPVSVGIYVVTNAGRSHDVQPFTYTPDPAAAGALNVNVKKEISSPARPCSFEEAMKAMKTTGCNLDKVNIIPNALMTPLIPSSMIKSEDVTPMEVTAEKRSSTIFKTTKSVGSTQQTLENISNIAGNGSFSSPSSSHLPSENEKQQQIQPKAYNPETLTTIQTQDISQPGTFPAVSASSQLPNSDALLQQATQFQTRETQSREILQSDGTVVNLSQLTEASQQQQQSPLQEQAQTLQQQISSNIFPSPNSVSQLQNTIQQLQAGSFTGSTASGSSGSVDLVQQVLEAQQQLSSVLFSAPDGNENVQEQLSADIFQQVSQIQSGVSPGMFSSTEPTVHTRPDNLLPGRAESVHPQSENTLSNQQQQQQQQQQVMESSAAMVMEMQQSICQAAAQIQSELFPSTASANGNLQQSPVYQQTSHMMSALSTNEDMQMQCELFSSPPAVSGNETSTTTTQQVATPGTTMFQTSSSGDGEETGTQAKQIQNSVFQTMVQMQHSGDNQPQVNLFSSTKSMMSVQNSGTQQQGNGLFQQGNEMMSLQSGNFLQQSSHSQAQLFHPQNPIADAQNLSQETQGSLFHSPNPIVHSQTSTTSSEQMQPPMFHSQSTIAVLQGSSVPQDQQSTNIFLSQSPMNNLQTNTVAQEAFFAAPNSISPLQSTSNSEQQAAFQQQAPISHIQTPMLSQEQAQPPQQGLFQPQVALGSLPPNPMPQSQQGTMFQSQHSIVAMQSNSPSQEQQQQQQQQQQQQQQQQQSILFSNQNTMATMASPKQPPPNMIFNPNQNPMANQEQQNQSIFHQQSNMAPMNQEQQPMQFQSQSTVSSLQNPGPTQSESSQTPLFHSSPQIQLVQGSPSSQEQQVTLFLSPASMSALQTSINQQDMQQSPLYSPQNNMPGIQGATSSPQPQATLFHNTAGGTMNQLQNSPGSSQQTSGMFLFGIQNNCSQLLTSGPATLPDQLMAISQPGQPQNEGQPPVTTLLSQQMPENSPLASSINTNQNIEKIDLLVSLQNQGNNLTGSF
UniProt Q9Y4K3: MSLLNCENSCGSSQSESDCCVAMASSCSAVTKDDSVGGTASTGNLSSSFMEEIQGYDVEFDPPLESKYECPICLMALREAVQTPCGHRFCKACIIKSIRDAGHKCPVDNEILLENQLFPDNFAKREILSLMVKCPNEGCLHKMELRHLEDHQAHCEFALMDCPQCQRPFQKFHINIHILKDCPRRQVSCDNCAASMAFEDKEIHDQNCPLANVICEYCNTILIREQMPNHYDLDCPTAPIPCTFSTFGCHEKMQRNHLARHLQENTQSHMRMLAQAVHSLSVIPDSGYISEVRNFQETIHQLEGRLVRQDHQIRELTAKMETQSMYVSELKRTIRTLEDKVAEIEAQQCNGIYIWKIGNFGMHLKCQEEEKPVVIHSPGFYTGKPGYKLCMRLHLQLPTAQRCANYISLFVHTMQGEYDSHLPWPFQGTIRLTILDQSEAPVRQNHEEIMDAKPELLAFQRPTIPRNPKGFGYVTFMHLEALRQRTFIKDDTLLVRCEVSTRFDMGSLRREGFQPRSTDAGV

Results are given in words; binding and its absence hold for the method and conditions named. In cells and extracts the contact can be indirect. Here binding means that the protein was enriched with, or labelled near, the bait; the list need not be complete.

The target of this experiment is Flag-tagged NFAT5 wild-type (human) (UniProt O94916). Description: affinity purification with mass spectrometry; lysate in NETN buffer (50 mM Tris, 0.2 mM EDTA, 1% Triton X-100, 150 mM NaCl) on anti-FLAG M2 affinity gel 3 h at 4 °C, eluted with flag-peptides, silver-stained bands analysed by LC-MS/MS.

“E3 ligase TRAF6, endogenous (from UniProt Q9Y4K3 1-522) (enzyme)”: the binding entry is reported as “binds”.
